# Values joined by “and” are separate entries in the source; they are usually repeats but may differ in a detail not shown here. Identical values can stand only once. “Also recorded” adds a separate entry of the source. At least one compound was matched to its structure with a doubt left.
# Experiments:
# Pten^fl/flMx-1-Cre mice = test: Rapamycin given immediately after Pten deletion (pIpC) in Pten fl/fl Mx-1-Cre mice; format: in vivo
# Protocol: Administration of polyinosine-polycytidine (pIpC) to induce Mx-1-Cre expression. pIpC (Sigma P-0913) was resuspended with DPBS at a concentration of 2 mg/ml and passed through a 0.22 uM filter (See, e.g., Mikkola et al., Nature 421, 54751 (2003)). Mice received 25 ug of pIpC/g of body mass every other day for 2 weeks.
# (§1) Administration of Rapamycin.
# (§2) Histopathology. Spleen, liver, and thymus samples were fixed in 10% neutral buffered formalin and paraffin embedded. Thin sections (5 μm) were cut on a microtome and stained with hematoxylin and eosin using standard protocols. Chloroacetate esterase staining was performed using a Leder stain kit (Sigma).
# All 3 such mice in this experiment died within 3-4 weeks of pIpC treatment, with AML and ALL (FIG. 9c).
# [1] = test system: leukemia-initiating cells; test: Transplantation of bone marrow from Pten-deleted mice treated 6 weeks with rapamycin into irradiated mice; format: in vivo
# [2] = test system: established leukemias (AML and ALL); test: Rapamycin against established leukemias in mice transplanted with Pten fl/fl Mx-1-Cre bone marrow cells, starting 15 weeks after pIpC; format: in vivo
# Protocol: as §1, §2
# To test if rapamycin was effective against established leukemias, mice that had been transplanted with Pten^fl/fl Mx-1-Cre bone marrow cells were treated with daily injections of vehicle or rapamycin, beginning 15 weeks after pIpC.
# Mice that had been transplanted with 1×10^6 Pten^fl/fl Mx-1-Cre donor (CD45.2^+) bone marrow cells along with 0.5×10^6 control (CD45.1^+) bone marrow cells were treated with daily injections of vehicle or rapamycin (4 mg/kg), starting 15 weeks after pIpC treatment.
# [3] = test system: myeloid blast cells from Pten^fl/flMx-1-Cre mice with AML; test: Cell cycle and activated caspase-3 of AML blasts in liquid culture; format: cell-based; conditions: for cells expressing activated caspase-3: 24 hours culture, flow cytometry, n=3; for percentage of myeloid blasts in S phase of the cell cycle: 24 hours in liquid culture
# [4] = test system: Flk2^−Sca-1^+Lin^−c-kit^+CD48^− cells (HSCs)
# human AML and ALL cells = conditions: cited from earlier work
# [5] = test system: myeloid blast cells from Pten^fl/flMx-1-Cre mice with AML; test: Colony-forming assay for leukemic blast cells in methylcellulose; conditions: for percentage of blast cells that formed colonies: complete methylcellulose medium, freshly isolated or cultured blasts, 1, 10, 100 nM, 14 days; for percentage of blast cells that formed colonies / colony size: dose-dependent; for colony size: methylcellulose
# [6] = test system: leukemia-initiating cells; test: Transplantation of bone marrow from mice treated with rapamycin after onset of leukemia; conditions: treatment initiated after onset of frank leukemia
# [7] = test system: irradiated recipients of bone marrow cells from a Pten-deficient mouse with AML and ALL; conditions: initiated after onset of leukemia
# [8] = daily injections for 7 days after pIpC treatment
# [9] = daily injections for 7 days after pIpC
smiles,measurement,setting,value
CO[C@H]1C[C@@H]2CC[C@@H](C)[C@@](O)(O2)C(=O)C(=O)N2CCCC[C@H]2C(=O)O[C@H]([C@H](C)C[C@@H]2CC[C@@H](O)[C@H](OC)C2)CC(=O)[C@H](C)/C=C(\C)[C@@H](O)[C@@H](OC)C(=O)[C@H](C)C[C@H](C)/C=C/C=C/C=C/1C [Rapamycin],histological evidence of neoplasm (spleen),"Pten^fl/flMx-1-Cre mice; daily 4 mg/kg, 4 weeks after pIpC",did not show even histological evidence of neoplasm
same,decrease in bone marrow cellularity observed in Pten fl/fl Mx-1-Cre mice,Pten^fl/flMx-1-Cre mice; [8],prevented
same,increase in spleen cellularity observed in Pten fl/fl Mx-1-Cre mice,Pten^fl/flMx-1-Cre mice; [8],prevented
same,overt health of mice after pIpC treatment,"Pten^fl/flMx-1-Cre mice; daily injections of 4 mg/kg rapamycin, 4 weeks after pIpC treatment, three mice",remained healthy and active
same,signs of hematopoietic malignancy,Pten^fl/flMx-1-Cre mice; maintained on rapamycin immediately after Pten deletion,did not develop signs of hematopoietic malignancy
same,effect on leukemia-initiating cells,[1]; donors treated 6 weeks after Pten deletion,depletes leukemia-initiating cells; also recorded: inhibits the generation or maintenance of leukemia-initiating cells
same,health / leukemia in recipients of bone marrow from rapamycin-treated mice,"[1]; donors treated 6 weeks, graded doses of whole bone marrow cells, recipients no longer received rapamycin",remained healthy and never exhibited signs of leukemia
same,frequency of Pten-deficient donor HSCs versus vehicle,[2]; daily 4 mg/kg from 15 weeks after pIpC,significantly (p<0.05) higher
same,overt health of treated mice,"[2]; daily injections 4 mg/kg, starting 15 weeks after pIpC, 3 mice",remained overtly healthy; also recorded: remained healthy in appearance
same,histology of two mice treated 15 weeks,"[2]; daily injections for 15 weeks, two mice",one exhibited histologic evidence of myeloproliferative disease and the other showed signs of AML and ALL
same,"overt health, spleen and thymus size of two mice treated 15 weeks","[2]; daily injections for 15 weeks, two mice not sacrificed for transplantation","appeared overtly healthy, with normal size spleens and thymuses"
same,Pathology when sacrificed,"[2]; individual mice sacrificed 20 or 30 weeks after stopping pIpC, daily 4 mg/kg from 15 weeks after pIpC, 4 mg/kg",MPD (2×) and AML and ALL
same,effectiveness in treating leukemia and rescuing HSCs when initiated after onset of leukemia,[2]; initiated weeks after pIpC treatment,only partially effective
same,cells expressing activated caspase-3,[3],increased
same,cells expressing activated caspase-3,[3]; listed as rapamycin,increased in a dose-dependent manner
same,percentage of myeloid blasts in S phase of the cell cycle,[3],significantly reduced
same,percentage of myeloid blasts in S phase of the cell cycle,[3]; listed as rapamycin,reduced; also recorded: significantly decreased
same,HSC depletion observed after 4 weeks,[4]; Pten fl/fl Mx-1-Cre mice,eliminated
same,HSC expansion observed 7 days after pIpC treatment,[4]; Pten fl/fl Mx-1-Cre mice,eliminated
same,cell cycle distribution of Flk2−Sca-1+Lin−c-kit+CD48− cells in Pten fl/fl Mx-1-Cre mice,[4]; [9],normalize
same,overall rate of proliferation in bone marrow,[4]; [9],did not affect
same,sensitivity of human AML and ALL cells,human AML and ALL cells,sensitive
same,survival and proliferation of clonogenic leukemia cells in culture,[5],inhibited the survival and proliferation
same,percentage of blast cells that formed colonies,[5],significantly reduced; also recorded: inhibited the formation of myeloid blast cell colonies
same,percentage of blast cells that formed colonies,[5]; listed as rapamycin,reduced
same,colony formation in minimal medium,[5]; methylcellulose with only 0.1% fetal bovine serum and 1% N2 supplement,significantly (p<0.01) inhibited
same,colony size,[5],significantly reduced
same,colony size,[5]; listed as rapamycin,reduced
same,frequency of leukemia-initiating cells,[6],reduced the frequency of leukemia-initiating cells
same,prolonging life of mice,[7],effective in prolonging the life of mice
